Results from the supplement of paper PMC10849652.
The list shows a part of the results. Residues, ends and D or L forms follow the SMILES beside them. *: point of attachment. Cbz = O=C(OCc1ccccc1)*

Amino acid sequences for entries named in this document (tags omitted). A change or cut given only in a name is not applied to a line headed by its entry.
UniProt O75884: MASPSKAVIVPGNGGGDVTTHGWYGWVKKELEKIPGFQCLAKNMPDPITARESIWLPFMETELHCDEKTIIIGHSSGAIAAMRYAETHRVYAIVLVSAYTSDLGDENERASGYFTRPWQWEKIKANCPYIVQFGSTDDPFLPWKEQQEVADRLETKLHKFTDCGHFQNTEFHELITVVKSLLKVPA
UniProt Q9H6Z4: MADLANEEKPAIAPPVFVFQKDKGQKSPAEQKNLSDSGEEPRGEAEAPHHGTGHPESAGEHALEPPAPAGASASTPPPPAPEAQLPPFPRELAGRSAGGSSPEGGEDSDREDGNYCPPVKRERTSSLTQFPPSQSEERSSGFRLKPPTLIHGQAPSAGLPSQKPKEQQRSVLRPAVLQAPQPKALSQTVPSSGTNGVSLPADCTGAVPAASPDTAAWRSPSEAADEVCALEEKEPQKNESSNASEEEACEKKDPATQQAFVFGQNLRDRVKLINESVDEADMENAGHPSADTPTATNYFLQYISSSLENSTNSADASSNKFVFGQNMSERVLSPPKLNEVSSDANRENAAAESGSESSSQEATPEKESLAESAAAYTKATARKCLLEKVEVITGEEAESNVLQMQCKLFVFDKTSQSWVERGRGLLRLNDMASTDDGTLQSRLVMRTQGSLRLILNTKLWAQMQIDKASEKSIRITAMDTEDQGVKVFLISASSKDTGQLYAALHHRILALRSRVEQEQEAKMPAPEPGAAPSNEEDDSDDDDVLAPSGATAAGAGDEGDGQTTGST
UniProt Q9NS23: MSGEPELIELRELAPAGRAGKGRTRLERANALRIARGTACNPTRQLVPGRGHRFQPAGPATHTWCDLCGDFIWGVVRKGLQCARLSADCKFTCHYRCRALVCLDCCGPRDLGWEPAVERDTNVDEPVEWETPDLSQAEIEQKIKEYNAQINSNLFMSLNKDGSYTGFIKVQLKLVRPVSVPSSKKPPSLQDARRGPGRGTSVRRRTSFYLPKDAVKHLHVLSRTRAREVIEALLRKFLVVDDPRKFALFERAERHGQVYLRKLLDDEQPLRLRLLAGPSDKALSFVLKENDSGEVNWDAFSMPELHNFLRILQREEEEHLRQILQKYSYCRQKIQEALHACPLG
UniProt P54725: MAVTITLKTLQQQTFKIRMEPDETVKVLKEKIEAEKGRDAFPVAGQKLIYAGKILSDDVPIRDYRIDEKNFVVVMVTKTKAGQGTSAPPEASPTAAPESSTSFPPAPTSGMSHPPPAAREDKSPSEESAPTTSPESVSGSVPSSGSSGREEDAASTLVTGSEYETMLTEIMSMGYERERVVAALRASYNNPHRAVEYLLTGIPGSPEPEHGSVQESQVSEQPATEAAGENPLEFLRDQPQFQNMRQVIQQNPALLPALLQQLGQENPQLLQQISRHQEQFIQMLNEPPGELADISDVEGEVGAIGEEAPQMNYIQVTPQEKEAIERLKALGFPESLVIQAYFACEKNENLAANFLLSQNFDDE
UniProt P20936: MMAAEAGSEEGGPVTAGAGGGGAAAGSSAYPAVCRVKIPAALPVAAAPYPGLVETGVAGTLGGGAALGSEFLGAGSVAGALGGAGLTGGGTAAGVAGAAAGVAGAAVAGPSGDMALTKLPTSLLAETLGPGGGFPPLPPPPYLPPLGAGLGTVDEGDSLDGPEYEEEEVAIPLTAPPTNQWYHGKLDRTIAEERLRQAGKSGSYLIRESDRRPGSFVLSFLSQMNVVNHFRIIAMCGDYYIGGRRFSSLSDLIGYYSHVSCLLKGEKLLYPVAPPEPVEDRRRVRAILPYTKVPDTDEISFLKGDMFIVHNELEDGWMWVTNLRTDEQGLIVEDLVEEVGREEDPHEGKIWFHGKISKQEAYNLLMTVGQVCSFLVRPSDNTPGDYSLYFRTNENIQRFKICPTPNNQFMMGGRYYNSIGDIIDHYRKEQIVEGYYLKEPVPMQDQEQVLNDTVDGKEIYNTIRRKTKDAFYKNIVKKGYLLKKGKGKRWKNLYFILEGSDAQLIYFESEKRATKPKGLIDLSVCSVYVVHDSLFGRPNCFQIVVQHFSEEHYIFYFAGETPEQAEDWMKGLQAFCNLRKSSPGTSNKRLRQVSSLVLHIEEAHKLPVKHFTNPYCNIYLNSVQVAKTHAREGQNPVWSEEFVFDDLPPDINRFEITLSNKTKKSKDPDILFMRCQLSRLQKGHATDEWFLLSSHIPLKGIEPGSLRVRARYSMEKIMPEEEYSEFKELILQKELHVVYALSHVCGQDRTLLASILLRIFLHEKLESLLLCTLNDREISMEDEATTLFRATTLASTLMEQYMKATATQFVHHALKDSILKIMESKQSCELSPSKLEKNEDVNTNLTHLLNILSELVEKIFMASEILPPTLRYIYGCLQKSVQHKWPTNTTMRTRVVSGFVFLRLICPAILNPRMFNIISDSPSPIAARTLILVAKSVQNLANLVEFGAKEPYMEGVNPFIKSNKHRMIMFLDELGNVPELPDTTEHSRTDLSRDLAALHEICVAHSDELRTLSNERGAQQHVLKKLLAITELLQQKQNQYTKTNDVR
UniProt O15315: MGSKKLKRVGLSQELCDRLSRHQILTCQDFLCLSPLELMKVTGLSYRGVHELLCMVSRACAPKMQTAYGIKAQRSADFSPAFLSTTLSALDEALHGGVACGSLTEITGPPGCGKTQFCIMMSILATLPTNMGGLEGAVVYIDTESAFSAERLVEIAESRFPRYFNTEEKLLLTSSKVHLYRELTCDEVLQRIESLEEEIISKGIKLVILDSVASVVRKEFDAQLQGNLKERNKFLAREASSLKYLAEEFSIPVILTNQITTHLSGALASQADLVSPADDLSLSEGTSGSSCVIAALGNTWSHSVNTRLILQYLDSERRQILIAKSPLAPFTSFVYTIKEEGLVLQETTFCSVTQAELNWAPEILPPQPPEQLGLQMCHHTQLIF
UniProt Q9NW13: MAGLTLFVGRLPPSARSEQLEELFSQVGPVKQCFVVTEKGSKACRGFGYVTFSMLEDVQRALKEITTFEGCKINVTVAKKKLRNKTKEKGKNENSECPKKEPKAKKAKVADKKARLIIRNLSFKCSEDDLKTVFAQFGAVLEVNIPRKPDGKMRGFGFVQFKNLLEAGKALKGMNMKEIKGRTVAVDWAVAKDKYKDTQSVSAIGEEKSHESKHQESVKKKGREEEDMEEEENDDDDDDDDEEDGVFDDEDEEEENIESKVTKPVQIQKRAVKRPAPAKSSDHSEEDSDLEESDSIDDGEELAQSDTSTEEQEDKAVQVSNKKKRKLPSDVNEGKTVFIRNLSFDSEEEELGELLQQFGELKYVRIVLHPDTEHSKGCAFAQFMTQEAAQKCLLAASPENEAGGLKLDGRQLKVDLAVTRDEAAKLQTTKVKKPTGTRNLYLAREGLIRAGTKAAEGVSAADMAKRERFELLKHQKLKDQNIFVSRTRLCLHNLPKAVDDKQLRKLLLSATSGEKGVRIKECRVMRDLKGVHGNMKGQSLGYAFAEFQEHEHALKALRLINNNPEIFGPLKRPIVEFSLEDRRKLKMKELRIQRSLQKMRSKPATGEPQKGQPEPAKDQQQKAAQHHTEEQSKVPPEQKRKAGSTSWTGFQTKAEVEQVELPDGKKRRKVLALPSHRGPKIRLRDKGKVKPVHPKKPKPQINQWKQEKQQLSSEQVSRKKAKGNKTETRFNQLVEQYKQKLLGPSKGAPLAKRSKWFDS
UniProt Q13905: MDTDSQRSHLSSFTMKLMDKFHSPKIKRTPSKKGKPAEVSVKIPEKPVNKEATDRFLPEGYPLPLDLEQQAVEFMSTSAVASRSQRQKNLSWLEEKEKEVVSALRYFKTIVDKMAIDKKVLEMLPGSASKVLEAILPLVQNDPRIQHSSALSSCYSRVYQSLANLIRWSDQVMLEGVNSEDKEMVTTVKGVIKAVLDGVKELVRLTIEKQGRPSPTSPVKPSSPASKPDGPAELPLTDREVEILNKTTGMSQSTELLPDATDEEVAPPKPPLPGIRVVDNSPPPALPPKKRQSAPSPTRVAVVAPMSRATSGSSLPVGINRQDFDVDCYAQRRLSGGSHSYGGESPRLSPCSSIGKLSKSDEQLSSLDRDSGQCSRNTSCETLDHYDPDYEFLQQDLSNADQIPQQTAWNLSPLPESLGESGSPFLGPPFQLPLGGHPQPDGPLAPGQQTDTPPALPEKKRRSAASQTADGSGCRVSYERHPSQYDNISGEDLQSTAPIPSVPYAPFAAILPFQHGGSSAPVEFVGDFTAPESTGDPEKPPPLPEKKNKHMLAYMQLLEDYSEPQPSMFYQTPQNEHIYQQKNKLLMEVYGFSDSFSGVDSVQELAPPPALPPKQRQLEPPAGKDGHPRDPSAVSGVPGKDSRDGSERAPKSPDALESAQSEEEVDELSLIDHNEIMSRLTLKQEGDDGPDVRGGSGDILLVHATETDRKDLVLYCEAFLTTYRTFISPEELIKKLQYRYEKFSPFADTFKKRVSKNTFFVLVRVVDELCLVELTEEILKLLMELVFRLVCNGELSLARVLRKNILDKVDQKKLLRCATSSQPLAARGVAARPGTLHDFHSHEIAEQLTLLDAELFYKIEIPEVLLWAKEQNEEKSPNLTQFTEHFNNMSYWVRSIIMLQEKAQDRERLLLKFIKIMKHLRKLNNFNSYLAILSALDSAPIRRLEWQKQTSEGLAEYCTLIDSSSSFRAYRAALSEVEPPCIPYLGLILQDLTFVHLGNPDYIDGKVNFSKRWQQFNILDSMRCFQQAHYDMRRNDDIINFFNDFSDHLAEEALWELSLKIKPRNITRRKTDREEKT
UniProt Q9P0K7: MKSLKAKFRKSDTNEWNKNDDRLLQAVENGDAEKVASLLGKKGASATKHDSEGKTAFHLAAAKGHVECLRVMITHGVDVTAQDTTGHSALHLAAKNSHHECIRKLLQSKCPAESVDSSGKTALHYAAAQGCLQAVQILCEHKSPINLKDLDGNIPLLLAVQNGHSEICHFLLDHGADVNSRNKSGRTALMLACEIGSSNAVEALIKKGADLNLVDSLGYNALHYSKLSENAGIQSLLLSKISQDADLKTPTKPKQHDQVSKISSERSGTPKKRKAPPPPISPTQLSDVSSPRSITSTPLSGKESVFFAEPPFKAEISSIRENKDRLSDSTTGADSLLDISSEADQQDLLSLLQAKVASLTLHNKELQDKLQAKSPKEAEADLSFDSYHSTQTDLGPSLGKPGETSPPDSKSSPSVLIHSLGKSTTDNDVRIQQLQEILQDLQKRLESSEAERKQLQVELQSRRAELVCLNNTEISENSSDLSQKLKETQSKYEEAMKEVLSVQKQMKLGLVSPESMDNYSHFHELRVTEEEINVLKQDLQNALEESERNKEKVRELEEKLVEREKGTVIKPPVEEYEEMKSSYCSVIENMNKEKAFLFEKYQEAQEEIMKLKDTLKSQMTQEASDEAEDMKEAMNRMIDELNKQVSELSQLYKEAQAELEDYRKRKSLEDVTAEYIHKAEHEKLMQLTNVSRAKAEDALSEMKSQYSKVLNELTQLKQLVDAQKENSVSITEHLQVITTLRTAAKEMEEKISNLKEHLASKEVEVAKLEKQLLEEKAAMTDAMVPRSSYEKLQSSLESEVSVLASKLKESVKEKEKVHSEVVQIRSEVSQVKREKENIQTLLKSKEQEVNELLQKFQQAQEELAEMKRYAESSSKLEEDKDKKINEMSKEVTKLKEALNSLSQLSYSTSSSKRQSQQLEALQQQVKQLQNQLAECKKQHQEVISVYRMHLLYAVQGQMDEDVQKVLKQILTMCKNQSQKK
UniProt Q9H477: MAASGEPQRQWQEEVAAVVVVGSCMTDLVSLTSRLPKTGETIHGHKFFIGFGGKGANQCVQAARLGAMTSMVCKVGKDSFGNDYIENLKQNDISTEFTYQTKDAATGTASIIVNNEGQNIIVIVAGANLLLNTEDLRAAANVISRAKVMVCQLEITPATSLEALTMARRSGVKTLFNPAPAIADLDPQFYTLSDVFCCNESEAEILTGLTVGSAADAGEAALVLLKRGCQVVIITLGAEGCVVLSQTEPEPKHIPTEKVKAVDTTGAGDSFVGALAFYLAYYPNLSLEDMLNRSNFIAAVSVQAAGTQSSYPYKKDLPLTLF
UniProt Q15291, whole entry, looked up: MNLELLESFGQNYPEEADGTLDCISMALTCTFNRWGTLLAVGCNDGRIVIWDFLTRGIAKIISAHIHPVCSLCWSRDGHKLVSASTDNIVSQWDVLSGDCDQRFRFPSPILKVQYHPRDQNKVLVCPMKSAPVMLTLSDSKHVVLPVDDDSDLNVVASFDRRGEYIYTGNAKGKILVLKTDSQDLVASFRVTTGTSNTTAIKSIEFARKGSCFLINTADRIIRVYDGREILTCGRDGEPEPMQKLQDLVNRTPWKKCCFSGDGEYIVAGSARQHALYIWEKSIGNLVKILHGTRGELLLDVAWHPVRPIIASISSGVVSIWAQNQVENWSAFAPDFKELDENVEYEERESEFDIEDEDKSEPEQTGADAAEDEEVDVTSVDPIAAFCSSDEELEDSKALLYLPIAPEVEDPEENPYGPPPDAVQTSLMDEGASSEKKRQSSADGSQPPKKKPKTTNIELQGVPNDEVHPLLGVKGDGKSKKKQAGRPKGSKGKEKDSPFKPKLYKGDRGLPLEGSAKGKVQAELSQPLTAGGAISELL

What was measured:
Test in all cases: log2 fold change, soluble protein after heating vs DMSO (PISA); higher = thermal stabilisation; K562 cells, 10 uM, 30 min; active = over 0.2 and 3.5 SD of the protein, either way, in both replicates (recomputed)
[1] = compound: C1COCCN1CCN2C3=CC=CC=C3N=C2NC(=O)C4=CC(=CC=C4)[N+](=O)[O-] [IRAK-1-4 Inhibitor I]
Procedure, shortened: (§1)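 Soluble protein was defined as the supernatant after 21,000xg for 90 min. It came from K562 cells at 2×10^6 cells/mL given 10 μM compound for 30 min, heated in aliquots for 3 min across 48°C-58°C, pooled, and extracted in PBS with 0.5% NP-40 at 4°C, and was quantified by TMTpro 16plex LC-MS/MS with equalised channel sums. Thermal stability against control samples, from duplicates, is reported as log2 fold change.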

[2] = compound: C=CC(=O)N1CCC[C@@H](n2nc(-c3ccc(Oc4ccccc4)cc3)c3c(N)ncnc32)C1 [ibrutinib]
Procedure, shortened: as §1

[3] = compound: CC(=O)c1cnc2ccc(-c3cc(Cl)c(O)c(Cl)c3)nc2c1N[C@H]1CC[C@H](CN(C)C)CC1
Procedure, shortened: as §1

[4] = compound: CC(C)(C)Cn1c(N)nc2ccc(-c3[nH]c(C(C)(C)C)nc3-c3ccc(F)cc3)nc21 [ralimetinib]
Procedure, shortened: as §1

[5] = compound: CC(C)(O)CC(=O)NCCn1ccc2ncnc(Nc3ccc(Oc4cccc(C(F)(F)F)c4)c(Cl)c3)c21
Procedure, shortened: as §1

[6] = compound: CC(C)C1=C2N=C(C=C(N2N=C1)NCC3=CC=CC=C3)NCCCCCCN
Procedure, shortened: as §1

[7] = compound: CC(C)C[C@@H](C=O)NC(=O)[C@H](CC(C)C)NC(=O)[C@H](CC(C)C)NC(=O)OCc1ccccc1
Procedure, shortened: as §1

[8] = compound: CC(C)N(C[C@H]1O[C@@H](n2cnc3c(N)ncnc32)[C@H](O)[C@@H]1O)[C@H]1C[C@@H](CCc2nc3cc(C(C)(C)C)ccc3[nH]2)C1 [pinometostat]
Procedure, shortened: as §1

[9] = compound: CC1=C(C2=C(C=C1)C(=O)C3=CC=CC=C3N2CCCN)C
Procedure, shortened: as §1

[10] = compound: CC1=C(C(CC(=O)N1)C2=CC=C(C=C2)C(F)(F)F)C(=O)NC3=C(C=C4C(=C3)C=NN4)F
Procedure, shortened: as §1

Target	log2 fold change [1]	log2 fold change [2]	log2 fold change [3]	log2 fold change [4]	log2 fold change [5]	log2 fold change [6]	log2 fold change [7]	log2 fold change [8]	log2 fold change [9]	log2 fold change [10]
RAB11FIP1 (UniProt Q6WKZ4)	inactive: 0.014	inactive: -0.009	inactive: -0.067	inactive: 0.023	inactive: -0.016	inactive: -0.118	inactive: -0.004	inactive: 0.059	inactive: 0.041	
RBM33 (UniProt Q96EV2)	inactive: -0.058	inactive: 0.024	inactive: -0.063	inactive: 0.014	inactive: 0.046	inactive: -0.018	inactive: -0.01	inactive: -0.01	active: -0.282	
RAB9A (UniProt P51151)	inactive: 0.018	inactive: 0.018	inactive: -0.001	inactive: -0.001	inactive: -0.014	inactive: -0.126	inactive: -0.008	inactive: -0.027	inactive: 0.06	
RALY (UniProt Q9UKM9)	inactive: -0.315	inactive: 0.001	inactive: -0.21	inactive: -0.029	inactive: 0.055	inactive: -0.101	inactive: 0.083	inactive: 0.129	inactive: -0.311	
RABGAP1L isoform 5 (UniProt Q5R372)	inactive: 0.04	inactive: -0.031	inactive: -0.025		inactive: -0.057	inactive: -0.125		inactive: -0.17	inactive: -0.271	
RASA2 (UniProt Q15283)	inactive: 0.053	inactive: -0.266	inactive: -0.244	inactive: -0.396	inactive: -0.008		inactive: 0.327	inactive: 0.072		
RAP1B (UniProt F5GZG1)	inactive: 0	inactive: 0.059	inactive: -0.157		inactive: 0.018	inactive: 0.039		inactive: -0.01	inactive: 0.141	inactive: -0.187
RAP1GDS1 isoform 5 (UniProt P52306)	inactive: -0.044	inactive: -0.098	inactive: 0.04	inactive: 0.005	inactive: -0.114	active: -0.277	inactive: -0.005	inactive: 0.067	inactive: 0.008	
RAPGEF4 (UniProt Q8WZA2)	inactive: -0.184	inactive: -0.025	inactive: -0.022		inactive: 0.065	inactive: 0.089		inactive: -0.096	inactive: 0.109	
RAB3IL1 (UniProt E9PK89)	inactive: -0.012	inactive: -0.021	inactive: -0.006	inactive: -0.018	inactive: -0.127	inactive: -0.032	inactive: 0.006	inactive: 0.017	inactive: -0.005	
RBBP9 (UniProt O75884)					inactive: -0.079					
RAB3B (UniProt P20337)				inactive: -0.137		inactive: -0.102	inactive: 0.187		inactive: -0.011	
RBBP4 isoform 2 (UniProt Q09028)		inactive: 0.031	inactive: 0.02			inactive: 0.123				
RAI1 (UniProt Q7Z5J4)		inactive: 0.1		inactive: -0.278	inactive: 0.105	inactive: -0.465	inactive: -0.061			inactive: -0.191
RAB3D (UniProt O95716)		inactive: -0.096	inactive: -0.02	inactive: 0.133		inactive: 0.121	active: -0.605		inactive: -0.104	
RBCK1 (UniProt Q9BYM8)			inactive: -0.064		inactive: -0.111	inactive: 0.03			inactive: 0.127	
RAB11FIP5 (UniProt Q9BXF6)				inactive: -0.066			inactive: -0.062			
RBM23 (UniProt Q86U06)		inactive: 0.147		inactive: -0.029	inactive: -0.271	inactive: -0.239	inactive: 0.123			
RAP1B (UniProt F5GWU8)	inactive: 0.111		inactive: -0.488	inactive: -0.112			inactive: -0.001	inactive: 0.004		
RANBP6 (UniProt O60518)	inactive: -0.265			inactive: 0.009			inactive: -0.107	inactive: 0.104		
RBM26 isoform 3 (UniProt Q5T8P6)			inactive: -0.528							
RANBP3 isoform 2 (UniProt Q9H6Z4)		inactive: -0.007				inactive: 0.067			inactive: -0.059	inactive: -0.003

Shown as comma-separated lines: part of the list above
Target,log2 fold change [1],log2 fold change [2],log2 fold change [3],log2 fold change [4],log2 fold change [5],log2 fold change [6],log2 fold change [7],log2 fold change [8],log2 fold change [9],log2 fold change [10]
RANBP6 (UniProt O60518),inactive: -0.265,,,inactive: 0.009,,,inactive: -0.107,inactive: 0.104,,
RBM26 isoform 3 (UniProt Q5T8P6),,,inactive: -0.528,,,,,,,
RANBP3 isoform 2 (UniProt Q9H6Z4),,inactive: -0.007,,,,inactive: 0.067,,,inactive: -0.059,inactive: -0.003

Continued.

Target	log2 fold change [1]	log2 fold change [2]	log2 fold change [3]	log2 fold change [4]	log2 fold change [5]	log2 fold change [6]	log2 fold change [7]	log2 fold change [8]	log2 fold change [9]	log2 fold change [10]
RASSF1 (UniProt Q9NS23)				inactive: 0.042			inactive: 0.154			
RAD23A isoform 3 (UniProt P54725)										inactive: -0.155
RASA1 (UniProt P20936)	inactive: -0.076		inactive: 0.085	inactive: 0.033	inactive: 0.023	inactive: -0.016	inactive: 0.063	inactive: 0.124	inactive: -0.152	inactive: -0.1
RASSF3 (UniProt Q86WH2)		inactive: -0.125	inactive: 0.223	inactive: -0.021		inactive: 0.107	inactive: 0.244			inactive: -0.095
RAD51B (UniProt O15315)		inactive: -0.319	inactive: 0.036		inactive: -0.072	inactive: -0.054			inactive: 0.059	inactive: 0.128
RBM28 (UniProt Q9NW13)		inactive: -0.281	inactive: -0.123	inactive: 0	inactive: 0.23	inactive: 0.05	inactive: 0.202			
RAB19 isoform 2 (UniProt A4D1S5)	inactive: -0.051	inactive: 0.14			inactive: -0.057			inactive: 0.002		
RAD17 (UniProt O75943)	inactive: -0.124							inactive: 0.222	inactive: -0.053	
RABEP2 (UniProt Q9H5N1)				inactive: -0.07		inactive: -0.095	inactive: 0.136			
RAPGEF1 isoform 3 (UniProt Q13905)		inactive: 0.052								
RALBP1 (UniProt Q15311)	inactive: -0.23		inactive: -0.236		inactive: 0.102			inactive: 0.086	inactive: -0.087	
RAB18 (UniProt H0Y6T8)	inactive: -0.084	inactive: -0.149						inactive: 0.005	inactive: -0.038	inactive: 0.045
RBBP8 isoform 2 (UniProt Q99708)	inactive: -0.012		inactive: -0.301			inactive: 0.063		inactive: 0.03	inactive: 0.028	
RACK1 (UniProt D6RHH4)		inactive: 0.164	inactive: -0.122		inactive: 0.16	inactive: -0.038			inactive: -0.009	inactive: 0.114
RAB28 (UniProt P51157)	inactive: -0.044		inactive: 0.012	inactive: -0.137		inactive: 0.114	inactive: 0.086	inactive: 0.028		
RBL1 (UniProt P28749)		inactive: 0.073				inactive: 0.145				inactive: -0.073
RAI14 isoform 2 (UniProt Q9P0K7)		inactive: -0.141	inactive: -0.193	inactive: 0.095	inactive: -0.016	inactive: -0.056	inactive: 0.188		inactive: -0.16	inactive: 0.081
RBKS (UniProt Q9H477)			inactive: -0.091	inactive: -0.195			inactive: -0.109			
RBBP5 isoform 2 (UniProt Q15291)		inactive: -0.023	inactive: 0.138	inactive: -0.002	inactive: -0.329	inactive: -0.079	inactive: 0.192		inactive: -0.053	inactive: 0.061
RAP2C (UniProt Q9Y3L5)		inactive: 0.016	inactive: -0.032	inactive: 0.021	inactive: -0.107	inactive: 0.148	inactive: 0.048		inactive: 0.11	
R3HDM4 (UniProt Q96D70)		inactive: 0.019	inactive: 0.126		inactive: 0.031	inactive: -0.034			inactive: -0.123	inactive: -0.054
